In US9440976B2, “1,7-diazacarbazoles and methods of use” (Genentech, Inc., priority 2009, dated 2016):
pEC50, pIC50: −log10 of the molar value. Some entries share one result that the patent states for a list of compounds.

Columns and labels:
[1] = test system: human colorectal adenocarcinoma derived cell line HT-29; experiment: Cellular assay (checkpoint abrogation); assay type: cell-based; conditions: HT-29 cells; 20 nM SN-38, then 300 nM nocodazole plus compound for 24 h; read-out: EC50 (50% decrease of phospho-Histone H3)
[2] = target: T1, chk1 (Homo sapiens, UniProt O14757); experiment: Chk1 primary assays (AlphaScreen / ATP radiometric); assay type: biochemical; conditions: assays of EXAMPLE i; 10 μM ATP, 30 minutes; AlphaScreen or ATP radiometric format not specified; read-out: IC50 against chk1
T1 construct: Full length human mutant recombinant protein, histidine tagged; histidine tag; purchased Invitrogen PV3982; host or cells: insect cells
T1 sequence (O14757 1-476): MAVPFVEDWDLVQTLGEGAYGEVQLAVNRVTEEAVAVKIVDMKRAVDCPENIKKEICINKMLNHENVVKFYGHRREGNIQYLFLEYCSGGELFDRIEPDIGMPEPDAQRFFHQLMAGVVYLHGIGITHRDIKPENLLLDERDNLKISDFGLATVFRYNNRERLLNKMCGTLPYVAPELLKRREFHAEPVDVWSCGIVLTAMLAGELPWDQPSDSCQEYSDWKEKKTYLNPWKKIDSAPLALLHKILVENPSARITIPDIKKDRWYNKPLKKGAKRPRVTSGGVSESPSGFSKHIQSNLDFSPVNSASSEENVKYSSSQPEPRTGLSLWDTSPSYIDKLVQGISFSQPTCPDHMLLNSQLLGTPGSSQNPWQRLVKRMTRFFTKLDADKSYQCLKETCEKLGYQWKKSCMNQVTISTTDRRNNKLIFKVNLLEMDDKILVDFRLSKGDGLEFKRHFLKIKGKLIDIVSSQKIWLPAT

## N#Cc1cc2c(cn1)[nH]c1ncc(Cl)c(N3CC[C@H](O)C3)c12 [Example 43, (S)-3-Chloro-4-(3-hydroxypyrrolidin-1-yl)-9H-dipyrido[2,3-b;4′,3′-d]pyrrole-6-carbonitrile]
[1]
  pEC50: > 5.00
[2]
  pIC50: > 5.30

## CN1CCC(C)(COc2c(Cl)cnc3[nH]c4cnc(C#N)cc4c23)CC1 [Example 41, 3-Chloro-4-((1,4-dimethylpiperidin-4-yl)methoxy)-9H-dipyrido[2,3-b;4′,3′-d]pyrrole-6-carbonitrile]
[1]
  pEC50: > 5.00
[2]
  pIC50: > 5.30

## COCCN1CCC[C@@H](Oc2ccnc3[nH]c4cnc(C#N)cc4c23)C1 [Example 69, (R)-4-(1-(2-methoxyethyl)piperidin-3-oxy)-9H-dipyrido[2,3-b;4′,3′-d]pyrrole-6-carbonitrile]
[2]
  pIC50: > 5.30

## O=C(C[C@H]1CCCN1)N1CCN(c2c(Cl)cnc3[nH]c4cnccc4c23)CC1 [Example 42, 1-[4-(3-Chloro-9H-dipyrido[2,3-b;4′,3′-d]pyrrol-4-yl)-piperazin-1-yl]-2-(R)-pyrrolidin-2-yl-ethanone]
[1]
  pEC50: > 5.00
[2]
  pIC50: > 5.30

## N#Cc1cc2c(cn1)[nH]c1ncc(Cl)c(N3CC(O)C3)c12 [Example 46, 3-Chloro-4-(3-hydroxyazetidin-1-yl)-9H-dipyrido[2,3-b;4′,3′-d]pyrrole-6-carbonitrile]
[1]
  pEC50: > 5.00
[2]
  pIC50: > 5.30

## N#Cc1cc2c(cn1)[nH]c1nccc(N3CCOC(CN4CCCC4)C3)c12 (centres unmarked) [Example 14, 4-(2-(pyrrolidin-1-ylmethyl)morpholino)-9H-dipyrido[2,3-b;4′,3′-d]pyrrole-6-carbonitrile]
[1]
  pEC50: > 5.00
[2]
  pIC50: > 5.30

## N#Cc1ncc2[nH]c3ncc(Cl)cc3c2c1O[C@@H]1CN2CCC1CC2 [Example 157, 5-[(S)-(1-Azabicyclo[2.2.2]oct-3-yl)oxy]-3-chloro-9H-dipyrido[2,3-b;4′,3′-d]pyrrole-6-carbonitrile]
[1]
  pEC50: > 5.00
[2]
  pIC50: > 5.30

## N#Cc1ncc2[nH]c3ncc(Br)cc3c2c1OC1CCNCC1 [Example 148, 3-Bromo-5-(piperidin-4-yloxy)-9H-dipyrido[2,3-b;4′,3′-d]pyrrole-6-carbonitrile]
[1]
  pEC50: > 5.00
[2]
  pIC50: > 5.30

## N#Cc1ncc2[nH]c3ncccc3c2c1OCC1CCNCC1 [Example 109, 5-(Piperidin-4-ylmethoxy)-9H-dipyrido[2,3-b;4′,3′-d]pyrrole-6-carbonitrile]
[1]
  pEC50: > 5.00
[2]
  pIC50: > 5.30

## N#Cc1cc2c(cn1)[nH]c1nccc(OC[C@@H]3CCCCN3)c12 [Example 73, (S)-4-(piperidin-2-ylmethoxy)-9H-dipyrido[2,3-b;4′,3′-d]pyrrole-6-carbonitrile]
[1]
  pEC50: > 5.00
[2]
  pIC50: > 5.30

## N#Cc1ncc2[nH]c3ncc(F)cc3c2c1O[C@@H]1CN2CCC1CC2 [Example 152, 5-[(S)-(1-Azabicyclo[2.2.2]oct-3-yl)oxy]-3-fluoro-9H-dipyrido[2,3-b;4′,3′-d]pyrrole-6-carbonitrile]
[1]
  pEC50: > 5.00
[2]
  pIC50: > 5.30

## N#Cc1cc2c(cn1)[nH]c1nccc(OCC3CN4CCC3CC4)c12 (centres unmarked) [Example 16, 4-(quinuclidin-3-ylmethoxy)-9H-dipyrido[2,3-b;4′,3′-d]pyrrole-6-carbonitrile]
[2]
  pIC50: > 5.30

## N#Cc1cc2c(cn1)[nH]c1nccc(O[C@@H]3CCC(=O)NC3)c12 [Example 11, (R)-4-((piperdin-2-one)-5-yloxy)-9H-dipyrido[2,3-b;4′,3′-d]pyrrole-6-carbonitrile]
[2]
  pIC50: > 5.30

## CCN1CCC[C@H](Nc2ccnc3[nH]c4cnc(C#N)cc4c23)C1 [Example 99, 4-((S)-1-Ethylpiperidin-3-ylamino)-9H-dipyrido[2,3-b;4′,3′-d]pyrrole-6-carbonitrile]
[2]
  pIC50: > 5.30

## N#Cc1cc2c(cn1)[nH]c1nccc(N3CC[C@H](NCC(F)(F)F)C3)c12 [Example 93, (S)-3-Chloro-4-(N-(2,2,2-trifluoroethyl)pyrrolidin-3-amino)-9H-dipyrido[2,3-b;4′,3′-d]pyrrole-6-carbonitrile]
[2]
  pIC50: > 5.30

## N#Cc1cc2c(cn1)[nH]c1nccc(N3CCN(C(=O)C[C@H]4CCCN4)CC3)c12 [Example 38, (R)-4-(4-(2-(pyrrolidin-2-yl)acetyl)piperazin-1-yl)-9H-dipyrido[2,3-b;4′,3′-d]pyrrole-6-carbonitrile]
[2]
  pIC50: > 5.30

## N#Cc1cc2c(cn1)[nH]c1nccc(O[C@@H]3CN4CCC3CC4)c12 [Example 98, 4-[(S)-(1-Azabicyclo-[2.2.2]oct-3-yl)oxy]-9H-dipyrido[2,3-b;4′,3′-d]pyrrole-6-carbonitrile]
[2]
  pIC50: > 5.30

## COCCN[C@@H]1CCN(c2ccnc3[nH]c4cnc(C#N)cc4c23)C1 [Example 78, (R)-4-(N-(2-methoxyethyl)pyrrolidin-3-amino)-9H-dipyrido[2,3-b;4′,3′-d]pyrrole-6-carbonitrile]
[2]
  pIC50: > 5.30

## N#Cc1cc2c(cn1)[nH]c1nccc(OC[C@H]3N[C@@H]4CC[C@H]3C4)c12 [Example 18, 4-((1R,3S,4S)-2-azabicyclo[2.2.1]heptan-3-ylmethoxy)-9H-dipyrido[2,3-b;4′,3′-d]pyrrole-6-carbonitrile]
[2]
  pIC50: > 5.30

## N#Cc1cc2c(cn1)[nH]c1nccc(O[C@H]3CN4CCC3CC4)c12 [Example 5, (R)-4-(quinuclidin-3-yloxy)-9H-dipyrido[2,3-b;4′,3′-d]pyrrole-6-carbonitrile]
[2]
  pIC50: > 5.30

## N#Cc1ncc2[nH]c3ncccc3c2c1OC12CCN(CC1)CC2 [Example 144, 5-(1-Aza-bicyclo[2.2.2]oct-4-yloxy)-9H-dipyrido[2,3-b;4′,3′-d]pyrrole-6-carbonitrile]
[1]
  pEC50: > 5.00

## N#Cc1cc2c(cn1)[nH]c1nccc(N3CCN(C(=O)C[C@@H]4CCCN4)CC3)c12 [Example 37, (S)-4-(4-(2-(pyrrolidin-2-yl)acetyl)piperazin-1-yl)-9H-dipyrido[2,3-b;4′,3′-d]pyrrole-6-carbonitrile]
[2]
  pIC50: > 5.30

## N#Cc1cc2c(cn1)[nH]c1nccc(N3CCC(N4CCOCC4)C3)c12 (centres unmarked) [Example 80, 4-(4-(pyrrolidin-3-yl)morpholino)-9H-dipyrido[2,3-b;4′,3′-d]pyrrole-6-carbonitrile]
[2]
  pIC50: > 5.30

## O=C(C[C@H]1CCCN1)N1CCN(c2ccnc3[nH]c4cnccc4c23)CC1 [Example 95, 1-[4-(9H-Dipyrido[2,3b;4′,3′-d]pyrrol-4-yl)-piperazin-1-yl]-2-(R)-pyrrolidin-2-yl-ethanone]
[2]
  pIC50: > 5.30

## N#Cc1ncc2[nH]c3ncccc3c2c1N[C@@H]1CN2CCC1CC2 [Example 124, 5-[(S)-(1-Azabicyclo[2.2.2]oct-3-yl)amino]-9H-dipyrido[2,3-b;4′,3′-d]pyrrole-6-carbonitrile]
[1]
  pEC50: > 5.00

## CCN1CCC(Nc2ccnc3[nH]c4cnc(C#N)cc4c23)CC1 [Example 97, 4-(1-Ethyl-piperidin-4-ylamino)-9H-dipyrido[2,3-b;4′,3′-d]pyrrole-6-carbonitrile]
[2]
  pIC50: > 5.30

## N#Cc1cc2c(cn1)[nH]c1nccc(O[C@@H]3CCCN(CCO)C3)c12 [Example 68, (R)-4-(1-(2-hydroxyethyl)piperidin-3-yloxy)-9H-dipyrido[2,3-b;4′,3′-d]pyrrole-6-carbonitrile]
[2]
  pIC50: > 5.30

## CCN1CCC[C@H]1COc1ccnc2[nH]c3cnc(C#N)cc3c12 [Example 32, (S)-4-((1-ethylpyrrolidin-2-yl)methoxy)-9H-dipyrido[2,3-b;4′,3′-d]pyrrole-6-carbonitrile]
[2]
  pIC50: > 5.30
